Source: PubChem BioAssay AID1347076 (National Center for Advancing Translational Sciences (NCATS), 2019)
Screen size: about 400,000 compounds; about 13,000 (3.2%) were called active. The inconclusive results got no clear call from the source; some entries with a clear call stand among them for comparison. Calls come from the whole dose curve; as a rule, active = well fitted cell-killing curve with a large enough effect; inconclusive = small, poorly fitted or top-dose-only effect, or effect the other way; inactive = flat fitted curve, though single readings scatter. Potencies beside an inconclusive call are fits to weak or partial responses and may not hold up.

experiment: qHTS assay for MDR1-selective chemotherapeutics: Primary screen using the drug-selected MDR subline cells KB-V1; settings: KB-V1 MDR cells viability, CellTiter-Glo, 72 h; activity change, negative = cytotoxicity: at 46.1 µM (top of the series); note: nearly all actives have a fitted effect of over 60% in size
Summary of the method: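 Luminescent ATP read-out (CellTiter-Glo, 10 min) measures survival of drug-selected KB-V1 MDR cells after 72 h, 37 degrees C compound exposure. Medium: phenol-red-free DMEM, 10% FBS. Values from fitted concentration-response curves.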
% is set by controls: 0 for no effect and ±100 for the full control effect; potency is the fitted concentration of half-maximal effect.

Question: Which Potency does the source give for `Cc1onc(-c2ccccc2)c1C(=O)Nc1nc2c(s1)C(=O)CC(C)(C)C2` here?
Answer: The Potency was inconclusive: 14.6 µM [cytotoxic, partial curve].

Question: Which Potency does the source give for `O=C(c1ccc(OC2CCN(C/C=C/c3ccccc3)CC2)cc1)N1CCCC1` here?
Answer: Its Potency is inconclusive: 23.1 µM [cytotoxic, single point].

Question: Which Potency does the source give for `CCOC(=O)C1=C(CC)Nc2ccccc2N=C1NC(=O)c1cc(C)on1` here?
Answer: The Potency was “inactive”.

Question: Which Potency does the source give for `COc1cccc(C(=O)c2cc3ccc(O)cc3oc2=O)c1` here?
Answer: Its Potency is inconclusive: 25.9 µM [cytotoxic, partial curve, poor fit].

Question: With `COc1cccc(/C=C2\SC(=S)N(CCCC(=O)N3CCCCC3)C2=O)c1` as the molecule, how does the Potency read?
Answer: The Potency was inconclusive: 20.6 µM [cytotoxic, single point].

Question: With `O=C(C/C=N/OCc1ccc(Cl)cc1Cl)c1ccc(Cl)cc1` as the molecule, how does the Potency read?
Answer: Its Potency is inconclusive: 23.1 µM [cytotoxic, partial curve, poor fit].

Question: With `OC[C@@H]1CN(Cc2ccncc2)C[C@H](n2cnc3c(NC4CC4)ncnc32)O1` as the molecule, how does the Potency read?
Answer: Its Potency is inconclusive: 8.2 µM [rising, partial curve].

Question: With `O=C(OCn1nnc2ccccc2c1=O)c1ccc(O)cc1` as the molecule, how does the Potency read?
Answer: Its Potency is inconclusive: 29.1 µM [cytotoxic, single point].

Question: For `CCOCCCNC(=S)NCCc1ccccc1`, which Potency is on record?
Answer: Its Potency is “inactive”.

Question: Which Potency does the source give for `NC(=O)Cn1c(S(=O)(=O)Cc2ccccc2)nc2ccccc21` here?
Answer: Its Potency is “inactive”.

Question: Which Potency does the source give for `Cc1cc(NC(=O)Cc2ccccc2)c2ccccc2n1` here?
Answer: The Potency was “inactive”.

Question: Which Potency does the source give for `COc1cccc(-c2nc(CS(=O)(=O)CC(=O)NCCc3ccc(C)cc3)c(C)o2)c1` here?
Answer: Its Potency is “inactive”.

Question: Which Potency does the source give for `COCCn1c(N2CCN(c3ccc(OC)cc3)CC2)nc2c1c(=O)n(C)c(=O)n2C` here?
Answer: The Potency was inconclusive: 14.6 µM [cytotoxic, single point].

Question: For `CCN(c1ccccc1)S(=O)(=O)c1ccc(N2CCN(c3ccc(O)cc3)CC2)nc1`, which Potency is on record?
Answer: The Potency was “inactive”.

Question: With `Cc1ccc(C)c(N2CCN(C(=O)CN(C)S(=O)(=O)c3ccc4c(c3)CCC(=O)N4)CC2)c1` as the molecule, how does the Potency read?
Answer: Its Potency is “inactive”.

Question: For `COCCCN=C(c1ccco1)n1c(=S)nc(-c2ccco2)n(CCCOC)c1=S`, which Potency is on record?
Answer: Its Potency is inconclusive: 25.9 µM [cytotoxic, single point].

Question: For `COCCNC(=O)C1(C)CCCN(Cc2cc3ccccc3o2)C1` (stereo not drawn), which Potency is on record?
Answer: The Potency was inconclusive: 29.1 µM [cytotoxic, single point].

Question: With `Cn1c(=O)cc(OCC(=O)NCc2ccc(F)cc2Cl)c2ccccc21` as the molecule, how does the Potency read?
Answer: Its Potency is “inactive”.

Question: Which Potency does the source give for `COc1cc(CN(C(=O)COc2ccc(Cl)c(C)c2)c2ccccn2)cc(OC)c1OC` here?
Answer: Its Potency is “inactive”.

Question: With `Cn1c(N)c(S(=O)(=O)N2CCCC2)c(=O)n(C)c1=O` as the molecule, how does the Potency read?
Answer: The Potency was inconclusive: 10.3 µM [rising, partial curve, poor fit].

Question: With `O=c1c2cc(N3CCOCC3)ccc2[nH]c(=S)n1Cc1ccc(Cl)cc1` as the molecule, how does the Potency read?
Answer: The Potency was active: 20.6 µM.

Question: With `Cc1csc2nc(COc3ccccc3NC(=O)c3ccccc3Cl)cc(=O)n12` as the molecule, how does the Potency read?
Answer: The Potency was inconclusive: 16.4 µM [cytotoxic, single point].

Question: With `Cc1nc(/C=C\C(=O)O)c2cc(C)oc2n1` as the molecule, how does the Potency read?
Answer: The Potency was inconclusive: 6.51 µM [rising, full curve, poor fit].

Question: With `NC12CCc3c(no[n+]3[O-])C1(O)CC(c1ccccc1)=[N+]2[O-]` (stereo not drawn) as the molecule, how does the Potency read?
Answer: Its Potency is “inactive”.

Question: For `C[C@@H]1[C@H](c2ccccc2)OCCS(=O)(=O)N1Cc1cccc(Cl)c1`, which Potency is on record?
Answer: Its Potency is inconclusive: 20.6 µM [cytotoxic, single point].

Question: With `Cc1ccc(-c2nc(Nc3ccc(O)cc3)c3ccccc3n2)cc1` as the molecule, how does the Potency read?
Answer: Its Potency is inconclusive: 18.4 µM [cytotoxic, single point].

Question: Which Potency does the source give for `O=C(NCCCN1CCCC1)c1cc(Sc2ccc(F)cc2)nc2ccccc12` here?
Answer: The Potency was inconclusive: 9.2 µM [cytotoxic, partial curve, poor fit].

Question: With `CCN(CCn1cccn1)C(=O)c1cc(COc2cc(C)ccc2C)on1` as the molecule, how does the Potency read?
Answer: The Potency was inconclusive: 29.1 µM [cytotoxic, single point].

Question: Which Potency does the source give for `CCCOc1cc(CN2CCCCC2)cc(C(C)=O)c1` here?
Answer: The Potency was “inactive”.

Question: Which Potency does the source give for `O=C(NCCS(=O)(=O)c1ccc(Cl)cc1)c1ccc(F)cc1` here?
Answer: The Potency was “inactive”.

Question: With `Cc1ccc(S(=O)(=O)NC(=O)C2(C)CCN2C(=O)CC2CCCC2)nc1` (stereo not drawn) as the molecule, how does the Potency read?
Answer: Its Potency is “inactive”.

Question: Which Potency does the source give for `COc1ccc(OCCn2c(=O)sc3ccccc32)cc1` here?
Answer: Its Potency is inconclusive: 25.9 µM [cytotoxic, single point].

Question: With `CCCCNC(=O)c1cn(C)c2ccc(S(=O)(=O)N3CC(C)CC(C)C3)cc2c1=O` (stereo not drawn) as the molecule, how does the Potency read?
Answer: Its Potency is “inactive”.

Question: Which Potency does the source give for `N#CCSc1nc2ccccc2c(=O)n1CC1CCCC1` here?
Answer: The Potency was “inactive”.

Question: Which Potency does the source give for `CCOc1ccc(NC(=O)CC2C(=O)N(CC)C(=S)N2CCN2CCOCC2)cc1` (stereo not drawn) here?
Answer: Its Potency is inconclusive: 14.6 µM [cytotoxic, partial curve].

Question: With `O=[N+]([O-])c1ccc(/C=C/c2nc3ccc([N+](=O)[O-])cc3[nH]2)cc1` as the molecule, how does the Potency read?
Answer: The Potency was active: 3.66 µM.

Question: Which Potency does the source give for `COc1ccccc1OCC(O)CN1CCN(CC(=O)Nc2c(C)cccc2C)CC1` (stereo not drawn) here?
Answer: The Potency was inconclusive: 23.1 µM [cytotoxic, single point].

Question: For `Cc1ccc2nc(Cl)c3cc(C(=O)N(CCN(C)C)Cc4ccco4)sc3c2c1`, which Potency is on record?
Answer: The Potency was inconclusive: 25.9 µM [cytotoxic, partial curve, poor fit].

Question: For `Nc1cc(N)nc(SCC(=O)NCC2CCCO2)n1` (stereo not drawn), which activity change, negative = cytotoxicity is on record?
Answer: The activity change, negative = cytotoxicity was inconclusive: 32.4%.

Question: Which Potency does the source give for `O=C(C=Cc1ccco1)c1ccco1` here?
Answer: Its Potency is inconclusive: 23.1 µM [rising, single point].

Question: Which Potency does the source give for `O=C(NC1CCCC1)C(c1ccccn1)N(Cc1ccccc1F)C(=O)c1csnn1` (stereo not drawn) here?
Answer: Its Potency is “inactive”.

Question: Which Potency does the source give for `Cc1cccc(/N=C/c2sc3ccccc3c2O)n1` here?
Answer: Its Potency is “inactive”.

Question: For `CCOc1ncccc1C(=O)OCC(=O)c1ccccc1Br`, which Potency is on record?
Answer: Its Potency is “inactive”.

Question: For `CCOc1ccc(CCN2C(=O)C(=O)N([C@@H](Cc3ccccc3)CN3CCC[C@H]3CN3C(=O)C(=O)NC[C@@H]3Cc3ccccc3)C[C@@H]2CC(C)C)cc1`, which Potency is on record?
Answer: Its Potency is “inactive”.

Question: For `Cc1ccc(NC(=O)C(C)c2cccc(C(=O)c3ccccc3)c2)cc1O` (stereo not drawn), which Potency is on record?
Answer: The Potency was active: 6.51 µM.

Question: With `O=C(c1cc(-c2cccnc2)nc2ccc(Br)cc12)N1CCN(c2ncccn2)CC1` as the molecule, how does the Potency read?
Answer: Its Potency is inconclusive: 20.6 µM [cytotoxic, partial curve, poor fit].

Question: Which Potency does the source give for `C/C(CCc1ccccc1)=N/NC(=O)C(=O)NCc1ccccc1` here?
Answer: The Potency was inconclusive: 14.6 µM [rising, partial curve].

Question: Which Potency does the source give for `O=C(NCc1ccc(Cl)nc1)c1csc([C@@H]2C[C@H](O)[C@@H](CO)O2)n1` here?
Answer: The Potency was “inactive”.

Question: Which Potency does the source give for `COc1ccc(CC(=O)NNc2ncnc3c2cnn3-c2ccc(C)cc2)cc1` here?
Answer: The Potency was inconclusive: 20.6 µM [cytotoxic, single point].

Question: With `CCNc1nc(-c2sc(NC(=O)C(C)(C)C)nc2C)c(-n2cc(-c3ccccc3)nn2)s1` as the molecule, how does the Potency read?
Answer: Its Potency is active: 18.4 µM.

Question: For `Cc1ccc(S(=O)(=O)N2CCN(C(=O)CSC3CCCC3)CC2)c(C)c1`, which Potency is on record?
Answer: Its Potency is active: 4.11 µM.

Question: With `O=S(=O)(Nc1ccccc1)c1ccc(Oc2ncc(C(F)(F)F)cc2Cl)cc1` as the molecule, how does the Potency read?
Answer: The Potency was inconclusive: 23.1 µM [cytotoxic, single point].

Question: For `CCOc1cc(C)c(S(=O)(=O)N2CCCC2)cc1C`, which Potency is on record?
Answer: Its Potency is inconclusive: 18.4 µM [cytotoxic, single point].

Question: Which Potency does the source give for `CC(C)[C@H]1C(=O)Nc2ccccc2N1C(=O)N[C@@H](Cc1ccccc1)C(=O)N[C@@H](C(=O)O)c1ccccc1` here?
Answer: The Potency was “inactive”.

Question: With `O=C(OC1Cn2c(=O)ccc(=O)n2C1)c1ccccc1` as the molecule, how does the Potency read?
Answer: Its Potency is inconclusive: 18.4 µM [rising, single point].

Question: With `CCOc1ccc(S(=O)(=O)c2ccc(C)cc2)c2c1no[n+]2[O-]` as the molecule, how does the Potency read?
Answer: Its Potency is inconclusive: 20.6 µM [cytotoxic, partial curve].

Question: With `CC(=O)Nc1ccc2c(c1)n(C)c(=O)n2C` as the molecule, how does the Potency read?
Answer: Its Potency is “inactive”.

Question: For `O=C(c1cc(-c2ccccc2)on1)N1CCN(Cc2ccc3c(c2)OCO3)CC1`, which Potency is on record?
Answer: Its Potency is inconclusive: 29.1 µM [cytotoxic, single point].

Question: With `Cc1ccc(NC(=O)c2ccc3c(=O)n4c(nc3c2)CCCCC4)nc1` as the molecule, how does the Potency read?
Answer: Its Potency is inconclusive: 8.2 µM [cytotoxic, partial curve].

Question: For `CC(=O)Nc1ccc(S(=O)(=O)NC2=C(N3CCN(C)CC3)C(=O)c3ccccc3C2=O)cc1`, which Potency is on record?
Answer: The Potency was “inactive”.

Question: With `CC(C)CCNC(=O)C1CCCCN1S(=O)(=O)c1ccc(F)cc1` (stereo not drawn) as the molecule, how does the Potency read?
Answer: Its Potency is inconclusive: 29.1 µM [cytotoxic, single point].

Question: For `COc1ccc(OC)c(N(CC(=O)NC2CCCCCC2)S(=O)(=O)c2ccc(C)cc2)c1`, which Potency is on record?
Answer: Its Potency is inconclusive: 9.2 µM [cytotoxic, partial curve].

Question: With `Cc1ccc(C(C)C)c(OC/C(O)=C(\C#N)c2nc3ccccc3[nH]2)c1` as the molecule, how does the Potency read?
Answer: Its Potency is inconclusive: 29.1 µM [cytotoxic, single point].

Question: With `Cc1ccc(Cl)cc1NC(=O)CSc1nc(C)c(C)c(C)c1C#N` as the molecule, how does the Potency read?
Answer: The Potency was inconclusive: 6.51 µM [cytotoxic, partial curve].

Question: Which Potency does the source give for `CC1Cc2ccccc2N1CC(=O)N(C)c1c(N)n(Cc2ccccc2)c(=O)[nH]c1=O` (stereo not drawn) here?
Answer: The Potency was inconclusive: 29.1 µM [rising, single point].

Question: With `CCOC(=O)C1C(=O)OC(C)(C)C1C(C)C(=O)c1ccccc1` (stereo not drawn) as the molecule, how does the Potency read?
Answer: Its Potency is “inactive”.

Question: With `COc1ccc(-c2noc(CSc3nnc(-c4ccc(Cl)cc4)n3C)n2)cc1OC` as the molecule, how does the Potency read?
Answer: The Potency was “inactive”.

Question: Which Potency does the source give for `COc1cccc(CC(NC(C)=O)C(=O)NC2CCN(C(=O)c3ccc(Cl)cc3)CC2)c1OC` (stereo not drawn) here?
Answer: The Potency was “inactive”.

Question: With `COC(C[C@H]1O[C@@H]1C(=O)[C@H](C)OCc1ccccc1)OC` as the molecule, how does the Potency read?
Answer: The Potency was inconclusive: 29.1 µM [cytotoxic, single point].

Question: Which Potency does the source give for `CCOC(=O)c1c(-c2ccc(OC)cc2)csc1NC(=O)CCN1CCOCC1` here?
Answer: The Potency was “inactive”.

Question: Which Potency does the source give for `CCOc1ccc(CC(C(N)=O)C(N)=O)cc1` here?
Answer: Its Potency is inconclusive: 20.6 µM [rising, single point].

Question: For `Cc1ccc(CNC(=O)C2CCCN(S(=O)(=O)c3ccc4c(ccn4C)c3)C2)cc1` (stereo not drawn), which Potency is on record?
Answer: Its Potency is “inactive”.

Question: Which Potency does the source give for `CN1CCN(C(=O)Nc2cccc(Cl)c2)c2cccnc21` here?
Answer: The Potency was “inactive”.
